Measured values: PubChem BioAssay AID504444 (National Center for Advancing Translational Sciences (NCATS), 2011)
The campaign covered roughly 360,000 compounds. About 7,500 (2.1%) were called active. This list was built around the results that the source calls inconclusive (neither active nor inactive); the mix of calls is not that of the screen. Calls follow the shape of the dose curve; as a rule, active = well fitted inhibition curve with a large enough effect; inconclusive = small, poorly fitted or top-dose-only effect, or effect the other way; inactive = flat fitted curve, though single readings scatter. A potency beside an inconclusive call is a rough fit, not a confirmed value.

Test: Nrf2 qHTS screen for inhibitors; also: nearly all actives have a fitted effect of over 60% in size
Settings: A549 ARE-Fluc reporter, luciferase luminescence, 18-24 h; activity change, negative = inhibition: at 46 µM (top of the series)
In short: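 Two sequential reads on A549 ARE_Fluc cells exposed to compound for 18-24 h: a CellTiter-Fluor fluorescence read for viability, then a luciferase luminescence read for Nrf2/ARE activity.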
% is scaled to controls: 0 for no effect and ±100 for the full control effect; potency is read from the fitted curve at half-maximal effect.

| Compound | Potency | activity change, negative = inhibition |
| --- | --- | --- |
| Cc1c(/C=N/NC(=O)C(NC(=O)c2ccc3c(c2)OCO3)C(C)C)c2ccccc2n1C (stereo not drawn) | inconclusive: 20.6 µM [falling, single point] | – |
| COc1ccc(C2C(O)C(c3c[nH]c4ccccc34)=NN2C(=O)CCl)cc1 (stereo not drawn) | – | inactive: 6.31% |
| O=C(Cc1ccccc1[N+](=O)[O-])OCC(=O)c1c[nH]c2ccccc12 | inconclusive: 20.6 µM [activator, single point] | – |
| CCc1nnc(SCc2nc(-c3ccc(OC)c(OC)c3)oc2C)c2cc3sc(C)cc3n12 | – | inactive: 1.44% |
| COc1cc(SC)ccc1C(=O)NCCOc1ccccc1Cl | inconclusive: 2.91 µM [activator, partial curve, poor fit] | – |
| O=C(c1ccccc1)n1ccc2ccccc21 | inconclusive: 11.6 µM [activator, partial curve, poor fit] | – |
| COc1ccc(OC)c(/C=N/N(C)c2ccccc2)c1 | inconclusive: 11.6 µM [activator, partial curve, poor fit] | – |
| Cc1ccc(-c2cn3cccc(C)c3n2)cc1 | inconclusive: 2.59 µM [activator, full curve] | – |
| CCOC(=O)N1CCN(C(=O)COc2ccc(S(=O)(=O)Nc3ccc(OCC)cc3)cc2)CC1 | inconclusive: 29.1 µM [falling, single point] | – |
| O=[N+]([O-])c1ccc(C(O)CSC(=S)N2CCCCC2)cc1 (stereo not drawn) | – | inactive: 7.29% |
| O=C(N/N=C/c1cc(Br)c(Br)o1)c1cc2ccccc2o1 | inconclusive: 20.6 µM [falling, partial curve, poor fit] | – |
| Cc1ccc(C(=O)N/N=C/C2=Cc3ccccc3OC2C)cc1 (stereo not drawn) | inconclusive: 29.1 µM [falling, partial curve, poor fit] | – |
| Cc1cccc(-c2noc(CCC(=O)N3CCN(c4cc(C)ccc4C)CC3)n2)c1 | inconclusive: 3.26 µM [activator, partial curve, poor fit] | – |
| O=C(NCc1ccc2c(c1)OCO2)c1cc([N+](=O)[O-])ccc1N1CCCCC1 | – | inactive: -4.78% |
| COc1ccc(Nc2ncc(C(=O)N3CCN(c4cccc(Cl)c4)CC3)c3ccccc23)cc1 | inconclusive: 6.51 µM [activator, single point] | – |
| COc1ccc(C(=O)NC(=S)NNC(=O)c2ccc3ccccc3n2)cc1 | inconclusive: 14.6 µM [falling, partial curve] | – |
| Fc1ccc(-n2nnc(-c3nccs3)n2)cc1 | inconclusive: 4.11 µM [activator, full curve] | – |
| COc1cccc2cc(C(C)N(CCCN3CCOCC3)C(=S)Nc3cc(C)ccc3C)oc12 (stereo not drawn) | inconclusive: 25.9 µM [activator, single point] | – |

In the list so far, 2 contain two or more sulfur atoms:

| Compound | Potency | activity change, negative = inhibition |
| --- | --- | --- |
| CCc1nnc(SCc2nc(-c3ccc(OC)c(OC)c3)oc2C)c2cc3sc(C)cc3n12 | – | inactive: 1.44% |
| O=[N+]([O-])c1ccc(C(O)CSC(=S)N2CCCCC2)cc1 (stereo not drawn) | – | inactive: 7.29% |
